Assay results reported in PubChem BioAssay AID493014 (National Center for Advancing Translational Sciences (NCATS), 2011).
This is one part of the list. These are further read-outs of the screen, such as a control signal, another cell line or another target. No call is given for them. Most of these compounds were active or inconclusive in the main read-out, so they are no random draw. The note in brackets gives the kind of curve behind each potency; many fits are weak.

Test: qHTS Assay to Find Inhibitors of Chronic Active B-Cell Receptor Signaling
Details: ABC-DLBCL IkBa-CBG/CBR reporter, luminescence ratio (green luciferase fused to IkBa over red control in TMD8 lymphoma cells), 4 h
How it was run: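 Concentration-response series (up to 46 uM) were applied to TMD8 dual-reporter cells for 4 h at 37C with doxycycline. Green/red ratio, after filter-overlap correction, defined %Activity; red signal alone was normalised to basal cells and zero luminescence.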

[1] = measured here: CBR red luminescence, cell number
[2] = measured here: IkBa-CBG green luminescence

O=C(CSc1nnc(CNC(=O)c2cccs2)o1)Nc1ccccc1
AC50 [1]: 35.5 µM [falling, single point]
AC50 [2]: 35.5 µM [rising, partial curve, poor fit]

COC(=O)Cc1csc(/N=C/c2c(O)n(-c3cccc(C(F)(F)F)c3)c(=O)c3ccccc23)n1
AC50 [1]: 29.1 µM [rising, single point]

CCCSc1nc2c(c(=O)n1CC)SC(C)C2 (configuration not stated)
AC50 [1]: 6.51 µM [rising, single point]

Cc1[nH]c2ccc(OC(=O)N3CCOCC3)cc2c1C(=O)OC(C)C
AC50 [2]: 3.66 µM [falling, single point]

COc1ccc(CNc2nc3ccccc3n2C)c(O)c1
AC50 [1]: 6.31 µM [rising, full curve]

COc1cc(S(=O)(=O)NCCc2c(C)[nH]c3ccc(C)cc23)ccc1Br
AC50 [1]: 14.1 µM [falling, single point]
AC50 [2]: 35.5 µM [rising, partial curve, poor fit]

CS(=O)(=O)c1ccc2c(c1)sc1nc(=O)c(/C=C3/C=CC(=O)C(O)=C3)c(N)n12
AC50 [1]: 11.2 µM [falling, partial curve]

COc1ccc(-c2nn(-c3ccccc3)cc2/C=N/n2cnnc2)cc1OC
AC50 [1]: 10.3 µM [rising, partial curve, poor fit]

C/C(=N\Nc1ccc([N+](=O)[O-])cc1)c1ccc(-n2nncc2C)cc1
AC50 [1]: 4.61 µM [rising, full curve, poor fit]

COc1ccc(Nc2nc(-c3ccccc3)nc3ccccc23)cc1S(=O)(=O)N1CCOCC1
AC50 [1]: 15.8 µM [falling, single point]

c1ccc(-c2noc(-c3cccc4ccccc34)n2)nc1
AC50 [1]: 25.9 µM [falling, single point]

Fc1cccc(Nc2nc(N3CCOCC3)nc(N3CCOCC3)n2)c1
AC50 [1]: 11.2 µM [falling, single point]

COc1cc(N/N=C(\C)c2ccc(N)cc2)nc(-c2ccccc2)n1
AC50 [1]: 12.6 µM [falling, partial curve, poor fit]

O=C(O)c1cccc(S(=O)(=O)Nc2cccc(S(=O)(=O)N3CCCC3)c2)c1
AC50 [1]: 0.00461 µM [falling, full curve, poor fit]

C=CCc1c(C)[nH]c2ccc(C)cc2c1=O
AC50 [1]: 3.26 µM [rising, single point]

CCCn1nc(NC(=O)C2CCCO2)c2cc3cc(C)ccc3nc21 (configuration not stated)
AC50 [1]: 0.82 µM [falling, full curve, poor fit]

O=C(N/N=C/c1ccc(N2CCOCC2)o1)c1ccccc1[N+](=O)[O-]
AC50 [1]: 25.9 µM [falling, single point]

Cc1ccc2[nH]c(=O)c(CN(Cc3cccnc3)Cc3nnnn3CCN3CCOCC3)cc2c1
AC50 [2]: 4.11 µM [rising, partial curve, poor fit]

COc1ccc(C2=CC(c3cccc(OC)c3)n3nnnc3N2)cc1 (configuration not stated)
AC50 [1]: 23.1 µM [falling, single point]

COc1ccc(NC(=O)CN(C)C(=O)c2ccc3[nH]c4c(c3c2)CC(C)CC4)cc1 (configuration not stated)
AC50 [1]: 16.4 µM [falling, single point]

CCC1Oc2ccc(C)cc2N(CC(=O)N(Cc2ccc(C)o2)C2CC(C)(C)NC(C)(C)C2)C1=O (configuration not stated)
AC50 [1]: 10.3 µM [falling, partial curve]

CC1CC(C)CN(C(=S)NC2CCCCC2)C1 (configuration not stated)
AC50 [1]: 0.651 µM [rising, full curve, poor fit]

CCOC(=O)/C=c1\s/c(=C(\C#N)C(N)=O)n(-c2ccccc2)c1=O
AC50 [1]: 15.8 µM [falling, single point]

Cc1cc(C)c(CSc2ncc(-c3ccc([N+](=O)[O-])cc3)[nH]2)c(C)c1
AC50 [1]: 35.5 µM [falling, single point]

O=C(Nc1nnc(-c2ccccn2)o1)c1cccc(Cl)c1
AC50 [1]: 7.94 µM [falling, partial curve]

CN(C)c1ccc(C(=S)Nc2ccccc2)cc1
AC50 [1]: 14.6 µM [falling, single point]

CCCC(=O)Nc1ccc(NC(=O)c2ccccc2Cl)nc1
AC50 [1]: 20.6 µM [falling, partial curve, poor fit]

CCOC(=O)c1snc(C(=O)NC2CCCCC2)c1N
AC50 [1]: 13 µM [falling, partial curve]

CC(C)c1ccc(NC(=O)C2CCCN(S(=O)(=O)c3cnc[nH]3)C2)cc1 (configuration not stated)
AC50 [1]: 20.6 µM [falling, partial curve, poor fit]

CCOC(=O)Nc1cccc2ccccc12
AC50 [1]: 12.6 µM [falling, partial curve, poor fit]

C=CCn1cc(C(=O)OC)c(=O)c2cc(S(=O)(=O)N(CC)CC)ccc21
AC50 [1]: 16.4 µM [falling, partial curve, poor fit]

Cc1nc(-c2ccccc2)sc1C(=O)/C=C/c1ccc(Cl)cc1
AC50 [1]: 12.6 µM [rising, single point]

COc1ccccc1NC(=O)COC(=O)c1ccccn1
AC50 [1]: 11.2 µM [falling, single point]

COc1ccc(C(=O)Cn2cnc3ccc(Cl)cc3c2=O)cc1F
AC50 [1]: 3.98 µM [rising, single point]

Cc1ccc(OCC(=O)NNC(=S)NC(=O)C2CC2)c(C)c1
AC50 [1]: 31.6 µM [falling, single point]
AC50 [2]: 35.5 µM [rising, partial curve, poor fit]

O/C(=C\Sc1nnc(Cc2ccccc2)o1)c1ccc(F)cc1
AC50 [1]: 0.58 µM [falling, full curve, poor fit]

CCOC(=O)C1CCCN(C(=O)c2ccc3c(c2)N(C)C(=O)/C(=C/c2ccccc2Cl)S3)C1 (configuration not stated)
AC50 [1]: 10 µM [falling, partial curve]

COc1ccc(OC)c(-n2cnc3cc(C(=O)NCCCN4CCOCC4)ccc32)c1
AC50 [1]: 10 µM [rising, partial curve]

COc1cc(C(=O)OCC(=O)NC(=O)c2cccn2C)ccc1OC(F)F
AC50 [1]: 35.5 µM [rising, single point]

CCOC(=O)N1CCC(N2Cc3cccc(C(=O)Nc4ccccc4OC)c3C2=O)CC1
AC50 [1]: 12.6 µM [falling, partial curve, poor fit]

Cc1cc(N2C3CCC2CC(O)(c2ccc(F)cc2)C3)nc(-c2ccccc2)n1 (configuration not stated)
AC50 [1]: 18.4 µM [falling, single point]

CC1CC(NC(=O)/C=C/C(=O)O)CC(C)(C)C1 (configuration not stated)
AC50 [1]: 3.55 µM [rising, partial curve]

COc1ccccc1NC(=O)COc1ccccc1C(=O)Nc1ccccc1
AC50 [1]: 20 µM [falling, single point]

Cc1c(C(=O)N2CCOCC2)c(S(=O)(=O)Nc2ccc(F)cc2)c(C)n1C
AC50 [1]: 35.5 µM [falling, single point]

C/C(=N/NC(=O)CNS(=O)(=O)c1ccc(C)cc1)c1cccc([N+](=O)[O-])c1
AC50 [1]: 35.5 µM [rising, single point]

COc1ccc(NC(=O)c2ccccc2F)cc1Cl
AC50 [1]: 18.4 µM [falling, single point]

O=C(CCCN1C(=O)/C(=C\c2ccco2)SC1=S)Nc1cccc2ccccc12
AC50 [1]: 29.1 µM [falling, single point]

COc1ccccc1CCn1cc(C#N)c(=O)[nH]c1=O
AC50 [1]: 11.2 µM [rising, partial curve, poor fit]

FC(F)(F)Oc1ccc(Nc2nc3ccccc3o2)cc1
AC50 [1]: 2.24 µM [rising, full curve]

CCCCCCc1cc2cc(C(=O)Nc3cccc(OC)c3)c(=O)oc2cc1O
AC50 [1]: 6.51 µM [falling, partial curve]

O=C(COc1ccccc1Cl)NC(=S)N1CCc2ccccc21
AC50 [1]: 14.1 µM [rising, partial curve, poor fit]

CCCCNc1c(-c2cccc(-c3ccc(OC)cc3)c2)nc2ccc(C)cn12
AC50 [1]: 7.31 µM [falling, partial curve]

O=C(NC(=S)NNC(=O)c1ccc(Cl)cc1Cl)c1cccnc1
AC50 [1]: 29.1 µM [falling, single point]

CN1C(=O)c2cccc(NCCCCCCN3C(=O)c4ccccc4C3=O)c2C1=O
AC50 [1]: 3.66 µM [rising, single point]

O=C(Cn1c(=O)n(Cc2ccccc2)c(=O)c2ccccc21)NCc1ccco1
AC50 [1]: 6.51 µM [rising, single point]

FC(F)(F)c1cccc(Sc2cc(C(F)(F)F)nc(-c3ccccn3)n2)c1
AC50 [1]: 0.112 µM [falling, full curve, poor fit]

COc1ccc(Cc2noc(CN3CCN(Cc4cccc(Cl)c4)CC3)n2)cc1OC
AC50 [1]: 2.51 µM [rising, partial curve, poor fit]

CCc1cc2c(SCC(=O)N3CC(=O)Nc4ccccc43)ncnc2s1
AC50 [1]: 3.66 µM [rising, full curve]

CCOc1ccccc1OCC(=O)Nc1ccc(N2CCOCC2)cc1N1CCOCC1
AC50 [1]: 5.8 µM [rising, full curve, poor fit]

O=C(COc1ccc(S(=O)(=O)NCc2ccccc2)cc1)N1CCOCC1
AC50 [1]: 29.1 µM [rising, single point]

CCCN(CCC)C(=O)CC(c1ccc(F)cc1)c1ccco1 (configuration not stated)
AC50 [1]: 1.3 µM [falling, full curve, poor fit]

O=C(NC(=S)Nc1ccc2ncccc2c1)c1ccccc1
AC50 [1]: 5.01 µM [falling, partial curve]

CCOc1ccc(C(=O)/C=C/Nc2ccc(S(=O)(=O)N=C(N)N)cc2)cc1
AC50 [1]: 13 µM [rising, partial curve, poor fit]

Nc1cc(N2CCCC2)ccc1[N+](=O)[O-]
AC50 [2]: 2.82 µM [falling, partial curve, poor fit]
